# According to publication doi:10.1101/2022.06.01.494398:
# Protein sequences, listed by entry. Tags and fused reporters are not part of them. Lines headed by an entry give the natural chain unless they say otherwise; changes in a name come on top.
# UniProt P10205, whole entry, stated change not applied: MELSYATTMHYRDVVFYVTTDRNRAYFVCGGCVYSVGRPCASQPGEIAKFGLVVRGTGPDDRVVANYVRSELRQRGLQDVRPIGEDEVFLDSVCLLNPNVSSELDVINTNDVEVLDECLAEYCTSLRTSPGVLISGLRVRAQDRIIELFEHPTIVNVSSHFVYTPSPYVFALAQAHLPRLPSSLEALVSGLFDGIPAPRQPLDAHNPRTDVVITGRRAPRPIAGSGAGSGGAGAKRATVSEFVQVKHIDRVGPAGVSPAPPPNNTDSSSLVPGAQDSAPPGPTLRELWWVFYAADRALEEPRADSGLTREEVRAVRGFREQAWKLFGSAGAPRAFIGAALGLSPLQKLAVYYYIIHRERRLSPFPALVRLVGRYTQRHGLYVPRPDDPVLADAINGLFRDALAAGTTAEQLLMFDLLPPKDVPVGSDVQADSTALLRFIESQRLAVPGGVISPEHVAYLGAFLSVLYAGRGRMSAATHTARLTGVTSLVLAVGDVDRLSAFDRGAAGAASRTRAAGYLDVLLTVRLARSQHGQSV
# No constants are given. Whether binding was seen depends on the method and setting. In cells and extracts the contact can be indirect. Binding calls can cover weak binding; strength is not graded here.
# Biological target: pUL21-GFP (wild-type) (HSV-1) (UniProt P10205)
# Test: co-IP
substance,measurement,value
"CERT (endogenous, HEK293T) (from UniProt Q9Y5P4)",binding,binds
